# doi:10.1101/2023.12.08.570772
# The chains behind the UniProt entries cited, without tags or fusion partners. Where a name states a change or a piece, a line headed by the entry shows the natural chain unless it says otherwise.
# UniProt Q9NS91, whole entry, looked up, stated change not applied: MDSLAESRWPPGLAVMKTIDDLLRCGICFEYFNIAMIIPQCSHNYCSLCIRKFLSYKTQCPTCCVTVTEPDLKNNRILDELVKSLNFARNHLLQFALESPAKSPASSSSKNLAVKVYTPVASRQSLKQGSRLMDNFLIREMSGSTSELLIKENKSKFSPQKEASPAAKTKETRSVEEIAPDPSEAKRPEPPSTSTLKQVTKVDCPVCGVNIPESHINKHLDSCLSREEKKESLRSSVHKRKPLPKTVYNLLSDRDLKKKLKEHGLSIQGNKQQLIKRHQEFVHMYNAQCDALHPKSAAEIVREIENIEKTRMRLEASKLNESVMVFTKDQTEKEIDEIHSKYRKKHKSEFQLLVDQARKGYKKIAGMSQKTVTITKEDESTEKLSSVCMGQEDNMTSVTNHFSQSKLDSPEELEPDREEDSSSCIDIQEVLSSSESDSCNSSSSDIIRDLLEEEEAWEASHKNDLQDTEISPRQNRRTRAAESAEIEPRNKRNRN
# UniProt P43358, whole entry: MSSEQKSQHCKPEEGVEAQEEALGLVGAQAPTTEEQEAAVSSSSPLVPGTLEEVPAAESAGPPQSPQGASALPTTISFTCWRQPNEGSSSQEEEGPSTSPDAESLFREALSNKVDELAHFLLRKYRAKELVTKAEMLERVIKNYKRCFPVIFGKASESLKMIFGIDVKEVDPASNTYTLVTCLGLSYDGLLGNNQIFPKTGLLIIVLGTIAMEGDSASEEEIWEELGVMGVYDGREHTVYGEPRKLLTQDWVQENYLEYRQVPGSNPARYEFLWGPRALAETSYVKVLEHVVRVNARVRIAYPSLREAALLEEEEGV
# These are yes or no findings as the source states them, for the method shown. Binding seen in cells or lysates may run through a third protein. Some binding calls cover weakened binding; strength is not graded here.
# Tests used:
# Experiment in all cases: pull-down
# [1] = molecular target: His-tagged full length RAD18 Y361D (human) (UniProt Q9NS91)
# [2] = molecular target: His-tagged full length RAD18 V354D (human) (UniProt Q9NS91)
# [3] = molecular target: His-tagged full length RAD18 A357D (human) (UniProt Q9NS91)
# [4] = molecular target: His-tagged full length RAD18 F350D (human) (UniProt Q9NS91)
substance,measurement,setting,value
untagged FL MAGEA4 WT (from UniProt P43358 1-317),binding,[1],binds weakly
same,binding,[2],binds
same,binding,[3],binds
same,binding,[4],binds weakly
